The results in this text go back to article PMC9867837.

The chains behind the UniProt entries cited, without tags or fusion partners. Residues count along the entry.
UniProt P40763, 127-711 C468A: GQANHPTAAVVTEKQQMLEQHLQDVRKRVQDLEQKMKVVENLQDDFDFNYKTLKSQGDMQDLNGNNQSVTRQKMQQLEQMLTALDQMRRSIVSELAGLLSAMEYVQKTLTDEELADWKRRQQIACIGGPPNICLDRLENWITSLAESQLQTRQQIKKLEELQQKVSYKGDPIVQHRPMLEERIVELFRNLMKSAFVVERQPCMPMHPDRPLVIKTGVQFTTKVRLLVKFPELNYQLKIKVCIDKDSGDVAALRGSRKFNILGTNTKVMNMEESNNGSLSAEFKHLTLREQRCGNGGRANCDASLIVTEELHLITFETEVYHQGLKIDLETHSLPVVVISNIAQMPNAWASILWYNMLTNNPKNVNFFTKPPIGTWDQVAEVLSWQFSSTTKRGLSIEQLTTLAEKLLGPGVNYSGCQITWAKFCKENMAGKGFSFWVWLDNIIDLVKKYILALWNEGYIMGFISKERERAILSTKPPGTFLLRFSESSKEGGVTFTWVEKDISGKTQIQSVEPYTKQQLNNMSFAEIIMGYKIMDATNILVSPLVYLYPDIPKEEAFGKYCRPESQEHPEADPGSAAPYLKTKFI
UniProt P40763, 127-711: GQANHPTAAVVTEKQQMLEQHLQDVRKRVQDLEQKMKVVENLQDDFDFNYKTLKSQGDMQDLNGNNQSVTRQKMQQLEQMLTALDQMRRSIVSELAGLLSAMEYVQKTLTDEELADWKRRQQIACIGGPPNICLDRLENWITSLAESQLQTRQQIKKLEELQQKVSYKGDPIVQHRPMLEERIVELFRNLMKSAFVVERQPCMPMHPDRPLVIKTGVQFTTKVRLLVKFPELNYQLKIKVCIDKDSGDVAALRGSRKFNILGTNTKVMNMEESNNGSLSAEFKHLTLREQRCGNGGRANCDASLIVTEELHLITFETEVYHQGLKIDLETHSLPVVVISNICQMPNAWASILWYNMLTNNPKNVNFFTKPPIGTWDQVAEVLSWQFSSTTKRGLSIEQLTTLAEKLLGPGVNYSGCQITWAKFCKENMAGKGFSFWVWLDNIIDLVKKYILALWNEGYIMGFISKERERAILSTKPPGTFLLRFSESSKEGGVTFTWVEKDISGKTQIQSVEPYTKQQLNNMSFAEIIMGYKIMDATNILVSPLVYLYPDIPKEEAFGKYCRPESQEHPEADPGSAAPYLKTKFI
UniProt P40763, 127-711 C328A: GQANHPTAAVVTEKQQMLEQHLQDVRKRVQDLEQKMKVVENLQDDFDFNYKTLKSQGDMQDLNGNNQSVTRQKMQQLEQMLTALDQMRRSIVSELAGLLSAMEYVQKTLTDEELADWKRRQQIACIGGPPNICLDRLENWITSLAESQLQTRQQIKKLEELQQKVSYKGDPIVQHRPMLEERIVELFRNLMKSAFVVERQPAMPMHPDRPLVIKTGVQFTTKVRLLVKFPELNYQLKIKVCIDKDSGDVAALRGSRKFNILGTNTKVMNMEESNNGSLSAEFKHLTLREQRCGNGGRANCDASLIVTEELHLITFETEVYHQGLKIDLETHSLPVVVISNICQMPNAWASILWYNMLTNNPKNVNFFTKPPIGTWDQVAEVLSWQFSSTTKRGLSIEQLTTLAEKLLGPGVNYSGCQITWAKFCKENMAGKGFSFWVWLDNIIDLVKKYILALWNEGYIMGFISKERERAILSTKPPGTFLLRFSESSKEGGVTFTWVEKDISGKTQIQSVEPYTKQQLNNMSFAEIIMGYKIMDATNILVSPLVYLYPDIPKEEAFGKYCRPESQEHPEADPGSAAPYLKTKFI
UniProt P40763, 127-711 C426A: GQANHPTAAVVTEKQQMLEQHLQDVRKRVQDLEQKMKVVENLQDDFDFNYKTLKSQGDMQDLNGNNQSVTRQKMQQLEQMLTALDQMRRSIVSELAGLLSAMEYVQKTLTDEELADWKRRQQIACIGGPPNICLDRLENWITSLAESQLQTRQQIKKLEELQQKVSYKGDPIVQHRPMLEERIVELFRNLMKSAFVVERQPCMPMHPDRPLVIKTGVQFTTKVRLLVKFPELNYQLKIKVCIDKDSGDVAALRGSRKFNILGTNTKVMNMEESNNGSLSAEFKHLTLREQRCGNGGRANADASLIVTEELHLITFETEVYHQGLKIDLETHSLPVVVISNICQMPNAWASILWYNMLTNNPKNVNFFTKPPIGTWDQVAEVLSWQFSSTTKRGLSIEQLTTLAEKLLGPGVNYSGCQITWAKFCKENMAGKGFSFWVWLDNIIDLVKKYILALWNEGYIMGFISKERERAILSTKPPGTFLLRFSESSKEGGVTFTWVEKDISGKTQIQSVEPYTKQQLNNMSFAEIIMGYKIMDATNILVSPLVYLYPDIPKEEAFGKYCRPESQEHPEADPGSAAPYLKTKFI
UniProt P40763, 127-711 C542S: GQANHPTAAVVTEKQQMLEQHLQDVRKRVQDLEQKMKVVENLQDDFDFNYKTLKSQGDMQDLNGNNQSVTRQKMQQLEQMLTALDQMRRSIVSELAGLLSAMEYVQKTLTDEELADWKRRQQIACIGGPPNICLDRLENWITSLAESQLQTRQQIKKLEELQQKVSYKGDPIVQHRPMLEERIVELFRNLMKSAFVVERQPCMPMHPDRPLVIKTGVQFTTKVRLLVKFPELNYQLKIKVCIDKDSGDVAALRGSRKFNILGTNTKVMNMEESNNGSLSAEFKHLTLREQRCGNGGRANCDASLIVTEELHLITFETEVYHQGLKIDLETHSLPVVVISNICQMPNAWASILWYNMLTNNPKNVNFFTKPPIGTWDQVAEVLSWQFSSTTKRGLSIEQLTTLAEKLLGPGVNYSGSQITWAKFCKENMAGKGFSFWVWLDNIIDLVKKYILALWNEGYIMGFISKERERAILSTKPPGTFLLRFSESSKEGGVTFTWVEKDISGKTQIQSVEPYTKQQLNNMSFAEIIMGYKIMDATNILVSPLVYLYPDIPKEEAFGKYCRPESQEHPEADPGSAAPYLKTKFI

Some targets named below: pYStat3 C468A (human) (UniProt P40763); pYStat3 C328A (human) (UniProt P40763); pYStat3 C426A (human) (UniProt P40763); pYStat3 C542S (human) (UniProt P40763).
Holding throughout (experiment): EMSA
Details in all cases: EMSA: protein pre-incubated with H182 or DMSO 30 min at room temperature, then 32P-hSIE 30 min at 30 C, binding buffer, recombinant protein, residues 127-711, protein details: C-terminal 6xHis, label: 32P

Series [1] deals with pYStat3 wild type (rStat3 core fragment) (human) (UniProt P40763).
The mark [2] stands for this setting: 3 uM H182, 30 min pre-incubation (unaffected).
Setting [3] is: 3 uM H182, 30 min pre-incubation.

For at least one entry, the source does not settle the construct or the ends of the probe. Weaker means in comparison with the reference protein, sequence or condition of that experiment. At least one verdict was read from the data and is not stated in words by the source.

As to “AGCTTCATTTCCCGTAAATCCCTA (double strand) [hSIE (m67 variant)]”, the binding result with pYStat3 C468A (human) (setting [2]) is on record as “binds”; with pYStat3 C468A (human) (10 uM H182, no effect (inhibitor IC50 40 uM)), “binds”; in the series with pYStat3 C468A (human) (30 uM H182, inhibited (inhibitor IC50 40 uM)) it was “binds more weakly”; in the series with pYStat3 C468A (human) (no inhibitor (10% DMSO)) it was “binds”; in series [1] (setting [3]), “binds more weakly”; in series [1] (no inhibitor (10% DMSO)), “binds”. The binding result is “binds more weakly” in the series with pYStat3 C328A (human) (setting [3]); “binds” with pYStat3 C328A (human) (no inhibitor (10% DMSO)); “binds” with pYStat3 C426A (human) (setting [2]); “binds more weakly” with pYStat3 C426A (human) (10 uM H182, near complete inhibition (inhibitor IC50 6 uM)); “binds” with pYStat3 C426A (human) (no inhibitor (10% DMSO)); “binds more weakly” in the series with pYStat3 C542S (human) (setting [3]). For the same sequence, the binding result in the series with pYStat3 C542S (human) (no inhibitor (10% DMSO)) is listed as “binds”.
